{"source": "PubChem BioAssay AID493014", "about": "(National Center for Advancing Translational Sciences (NCATS), 2011)", "assay": "qHTS Assay to Find Inhibitors of Chronic Active B-Cell Receptor Signaling", "conditions": "ABC-DLBCL IkBa-CBG/CBR reporter, luminescence ratio (green luciferase fused to IkBa over red control in TMD8 lymphoma cells), 4 h", "method_in_brief": "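Doxycycline induced both beetle luciferases in TMD8 lymphoma cells; IKK-driven degradation limits the IkappaBalpha-fused green signal, while red luminescence normalises for cell number and nonspecific effects. Compounds tested up to 46 uM, 4 hrs.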", "key": {"[1]": {"conditions": "measured here: CBR red luminescence, cell number"}, "[2]": {"conditions": "measured here: IkBa-CBG green luminescence"}}, "note": "The list shows a part of the results. Shown are side measurements of this screen, not its main read-out; they come without a call. Compounds called inactive in the main read-out are mostly missing here. The note in brackets gives the kind of curve behind each potency; many fits are weak."}
{"smiles": "CCCCOC(=O)/C=C\\C(=O)NC(N)=O", "values": [{"measurement": "AC50", "setting": "[1]", "value": "14.1 µM [falling, single point]"}]}
{"smiles": "Cc1cc(C)n(-c2ncnc3sc4c(c23)CCCC4)n1", "values": [{"measurement": "AC50", "setting": "[1]", "value": "35.5 µM [rising, single point]"}]}
{"smiles": "CC(C)Cn1c(N)c(C(=O)COC(=O)c2ccncc2)c(=O)n(C)c1=O", "values": [{"measurement": "AC50", "setting": "[1]", "value": "3.55 µM [rising, partial curve, poor fit]"}]}
{"smiles": "Cc1ccc(-n2c(CCc3ccccc3)nnc2SCC(=O)NCc2ccccc2)cc1C", "values": [{"measurement": "AC50", "setting": "[1]", "value": "2.91 µM [rising, single point]"}]}
{"smiles": "COc1ccc(-n2ncc3c(=O)n(CC(C)=O)cnc32)cc1", "values": [{"measurement": "AC50", "setting": "[1]", "value": "35.5 µM [rising, single point]"}]}
{"smiles": "COc1ccc(-c2[nH]c(-c3ccc(F)cc3)nc2SCC(=O)NC2CCCC2)cc1", "values": [{"measurement": "AC50", "setting": "[1]", "value": "29.1 µM [falling, single point]"}]}
{"smiles": "CN1c2ccccc2Sc2cc(N)ccc21", "values": [{"measurement": "AC50", "setting": "[2]", "value": "17.8 µM [falling, partial curve, poor fit]"}]}
{"smiles": "O=C(Nc1ncc(Cc2ccccc2)s1)C1COc2ccccc2O1", "note": "(stereo not drawn)", "values": [{"measurement": "AC50", "setting": "[1]", "value": "0.562 µM [rising, full curve, poor fit]"}]}
{"smiles": "CC(=O)Nc1nc(-c2ccccc2)nc(C)c1C(C)=O", "values": [{"measurement": "AC50", "setting": "[1]", "value": "18.4 µM [rising, single point]"}]}
{"smiles": "COc1ccc(-c2nc(C#N)c(NCC3CCCO3)o2)cc1", "note": "(stereo not drawn)", "values": [{"measurement": "AC50", "setting": "[1]", "value": "10.3 µM [rising, partial curve, poor fit]"}]}
{"smiles": "CCN=c1sc(C(=O)NCCc2ccccc2)cc(=O)n1CC", "values": [{"measurement": "AC50", "setting": "[1]", "value": "11.2 µM [falling, partial curve]"}]}
{"smiles": "CCOc1ccccc1NC(=O)Nc1ccc(Cl)cc1", "values": [{"measurement": "AC50", "setting": "[1]", "value": "25.9 µM [falling, partial curve, poor fit]"}]}
{"smiles": "O=C(COc1cccc(Cl)c1)N/N=C\\c1cc2ccccc2nc1Cl", "values": [{"measurement": "AC50", "setting": "[1]", "value": "0.092 µM [rising, full curve, poor fit]"}]}
{"smiles": "Cc1cccc(-n2ncc3c(N4CCCC(C)C4)ncnc32)c1", "note": "(stereo not drawn)", "values": [{"measurement": "AC50", "setting": "[1]", "value": "35.5 µM [falling, single point]"}]}
{"smiles": "O=C(NNC(=O)C1CC2CCC1C2)c1sc2ccccc2c1Cl", "note": "(stereo not drawn)", "values": [{"measurement": "AC50", "setting": "[1]", "value": "18.4 µM [falling, single point]"}]}
{"smiles": "NC(=O)COc1ccc(Nc2nnc(-c3ccc(O)cc3)c3ccccc23)cc1", "values": [{"measurement": "AC50", "setting": "[1]", "value": "14.1 µM [falling, single point]"}]}
{"smiles": "Cn1c(=N)n(CC(=O)c2ccccc2)c2ccccc21", "values": [{"measurement": "AC50", "setting": "[1]", "value": "10 µM [falling, partial curve]"}]}
{"smiles": "Cc1nn(CC(=O)Nc2ccc(F)cc2)c(=O)c2ccccc12", "values": [{"measurement": "AC50", "setting": "[1]", "value": "2.51 µM [falling, full curve]"}]}
{"smiles": "Cn1nc(C(=O)Nc2nc3ccccc3[nH]2)ccc1=O", "values": [{"measurement": "AC50", "setting": "[1]", "value": "15.8 µM [falling, partial curve]"}]}
{"smiles": "COc1ccc(OC)c(C2=NOC(C(=O)NCc3ccco3)C2)c1", "note": "(stereo not drawn)", "values": [{"measurement": "AC50", "setting": "[1]", "value": "18.4 µM [falling, partial curve, poor fit]"}]}
{"smiles": "CCCOc1nc2c(c(=O)n(C)c(=O)n2C)n1CCC", "values": [{"measurement": "AC50", "setting": "[1]", "value": "3.16 µM [falling, single point]"}]}
{"smiles": "Cc1ccc(NC(=O)CN(C)CC(=O)Nc2ccccc2-c2ccccc2)cc1", "values": [{"measurement": "AC50", "setting": "[1]", "value": "35.5 µM [falling, single point]"}]}
{"smiles": "CN1CCCC(CN2c3ccccc3Sc3ccccc32)C1", "note": "(stereo not drawn)", "values": [{"measurement": "AC50", "setting": "[1]", "value": "10 µM [falling, partial curve]"}]}
{"smiles": "O=C(Cn1cc(C(F)(F)F)ccc1=O)N/N=C/c1ccccc1", "values": [{"measurement": "AC50", "setting": "[1]", "value": "2.24 µM [rising, partial curve, poor fit]"}]}
{"smiles": "Cc1cccc(-n2nc3c(c2NC(=O)CCCl)CSC3)c1", "values": [{"measurement": "AC50", "setting": "[1]", "value": "5.62 µM [rising, single point]"}]}
{"smiles": "CCCN1C(=O)c2cc(C(=O)NCCc3cccc(C)c3)ccc2C1O", "note": "(stereo not drawn)", "values": [{"measurement": "AC50", "setting": "[1]", "value": "0.103 µM [rising, full curve, poor fit]"}]}
{"smiles": "O=C(NN=C1CCCC1)c1ccccc1OCc1ccc(Cl)cc1", "values": [{"measurement": "AC50", "setting": "[1]", "value": "25.1 µM [falling, single point]"}]}
{"smiles": "O=C(Nc1ccc(Br)cc1)c1ccc(F)c(S(=O)(=O)N2CCc3ccccc32)c1", "values": [{"measurement": "AC50", "setting": "[1]", "value": "0.562 µM [falling, partial curve, poor fit]"}]}
{"smiles": "CCOC(=O)CSc1nc2sc3c(c2c(=O)n1-c1ccc(OCC)cc1)CCN(C)C3", "values": [{"measurement": "AC50", "setting": "[1]", "value": "0.112 µM [falling, full curve, poor fit]"}]}
{"smiles": "O=c1c2cnn(-c3ccccc3)c2ncn1Cc1ccccc1F", "values": [{"measurement": "AC50", "setting": "[1]", "value": "3.26 µM [falling, partial curve, poor fit]"}]}
{"smiles": "CCNc1ccc(C(=O)OCC(=O)NC(C)c2ccccc2)cc1[N+](=O)[O-]", "note": "(stereo not drawn)", "values": [{"measurement": "AC50", "setting": "[1]", "value": "16.4 µM [rising, single point]"}]}
{"smiles": "COCCOc1ccc(C(F)(F)F)cc1NC(=O)COC(=O)Cc1c[nH]c2ccccc12", "values": [{"measurement": "AC50", "setting": "[1]", "value": "1.16 µM [falling, partial curve, poor fit]"}]}
{"smiles": "CCOc1ccccc1NC(=O)N1CCC(NC(=O)c2cccc(C)c2)CC1", "values": [{"measurement": "AC50", "setting": "[1]", "value": "15.8 µM [falling, partial curve, poor fit]"}]}
{"smiles": "Cc1nc(C(=O)NNC(=O)c2ccc(Cl)cc2)cs1", "values": [{"measurement": "AC50", "setting": "[1]", "value": "35.5 µM [falling, single point]"}]}
{"smiles": "COc1ccccc1CN1Cc2cccc3c2[C@@H](CC1=O)[C@H](O)[C@H](O)C3", "values": [{"measurement": "AC50", "setting": "[1]", "value": "32.6 µM [rising, single point]"}]}
{"smiles": "O=C(/C(=C/O)N=Nc1ccccc1)c1cccs1", "values": [{"measurement": "AC50", "setting": "[1]", "value": "10 µM [rising, partial curve, poor fit]"}, {"measurement": "AC50", "setting": "[2]", "value": "15.8 µM [falling, single point]"}]}
{"smiles": "Cn1cccc1C(=O)C(=O)Nc1ccc(Cl)cc1", "values": [{"measurement": "AC50", "setting": "[1]", "value": "10 µM [falling, partial curve, poor fit]"}]}
{"smiles": "CCNc1nc2c(c(=O)n(Cc3ccccc3)c(=O)n2C)n1Cc1ccccc1", "values": [{"measurement": "AC50", "setting": "[1]", "value": "35.5 µM [falling, single point]"}]}
{"smiles": "CCOC(=O)/C(C#N)=C1\\SS/C(=C(/C#N)C(=O)OCC)S1", "values": [{"measurement": "AC50", "setting": "[1]", "value": "35.5 µM [falling, single point]"}]}
{"smiles": "O=C(O)CCCCCN1C(=O)/C(=C\\c2ccc(-c3ccc(Cl)cc3)o2)SC1=S", "values": [{"measurement": "AC50", "setting": "[1]", "value": "0.1 µM [falling, full curve, poor fit]"}]}
{"smiles": "Cn1c(=O)[nH]c(=O)c2c1nc(SCC(=O)Nc1ccccc1)n2Cc1ccccc1", "values": [{"measurement": "AC50", "setting": "[1]", "value": "23.1 µM [falling, partial curve]"}]}
{"smiles": "COc1ccccc1N=Cc1c(O)c2ccccc2oc1=O", "values": [{"measurement": "AC50", "setting": "[1]", "value": "4.11 µM [falling, full curve, poor fit]"}]}
